From PubChem BioAssay record AID1224904 (Broad Institute, 2016).

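Control-channel Italica luciferase signal in doxycycline-induced 293T-iDUX4 cells, given as percent activity after a 24-hour treatment.
The test concentration is not given here.
Percent change in the Italica control signal; more negative values mean stronger inhibition, which points to nonspecific, tet-on or cytotoxic effects.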

Values are in %.
Common to all entries: measured here: Italica tet-on control reporter.
Part of the compounds only, not a random draw; the main read-out is not listed here.

Compound	activity change (%)
Cc1ccc(OC(=O)N(C)C[C@H]2OCc3ccccc3-c3c(n(C)c4ccccc34)C(=O)N([C@@H](C)CO)C[C@@H]2C)cc1	-51.8
O=C(Nc1ccc(F)cc1)N1CC(=O)N2[C@H](CO)[C@H](c3ccc(-c4cccc(F)c4)cc3)[C@@H]2C1	-21.12
O=C(C[C@H]1CC[C@H]2[C@@H](COC[C@@H](O)CN2Cc2ccccc2F)O1)N[C@@H]1CCN(Cc2ccccc2)C1	-3.543
COc1cccc(C(=O)Nc2ccc3c(c2)OC[C@H](C)N(CCc2ccccc2)C[C@@H](C)[C@H](OC)CN(C)C3=O)c1	-33.86
O=C(C[C@H]1CC[C@H]2[C@@H](COC[C@@H](O)CN2CC2CCCCC2)O1)NCc1ccc(F)cc1	-4.817
O=C(C1CCCCC1)N1CC2(C1)[C@H](c1ccccc1)[C@@H](CO)N2Cc1ccccc1F	-32.21
O=C(C[C@H]1CC[C@@H]2[C@H](COC[C@@H](O)CN2Cc2ccc(C(F)(F)F)cc2)O1)N1CCc2ccccc2C1	-36.56
CN1[C@@H]2c3ccc(/C=C/c4ccccc4)c(=O)n3C[C@@H]2[C@@H](CO)[C@@H]1C(=O)NC1CCCC1	-8.114
C[C@@H]1CN([C@H](C)CO)C(=O)c2c(c3ccccc3n2C)-c2ccccc2CO[C@H]1CN(C)S(=O)(=O)c1ccsc1	-10.83
O=C(C[C@H]1CC[C@H]2[C@@H](COC[C@H](O)CN2C(=O)Nc2cc(Cl)cc(Cl)c2)O1)N1CCCCC1	-17.88
O=C(Nc1ccccc1)N1CCCCN2[C@H](CO)[C@@H](c3ccc(C4=CCCCC4)cc3)[C@H]2C1	-34.05
COc1ccc(S(=O)(=O)N2CC[C@@H]3[C@H](CO)Nc4ccc(-c5ccc(C#N)cc5)cc4[C@@H]32)cc1	-59.69
CCS(=O)(=O)N1CC2(CN(Cc3cc(F)ccc3F)[C@H](CO)c3c2c2ccc(OC)cc2n3C)C1	-0.022
Cc1noc(C)c1S(=O)(=O)N(C)C[C@@H]1OCCCC[C@@H](C)Oc2ccc(NC(=O)c3ccccc3)cc2C(=O)N([C@@H](C)CO)C[C@H]1C	-16.3
COCC(=O)N1CCC2(CC1)CN(Cc1cc(F)ccc1F)[C@@H](CO)c1[nH]c3cc(OC)ccc3c12	-32.74
C[C@H](CO)N1C[C@H](C)[C@H](CN(C)C(=O)c2ccccc2)OCc2ccccc2-c2ccccc2C1=O	-3.595
CO[C@@H]1CN(C)C(=O)c2ccc(NC(=O)Nc3ccc(F)cc3)cc2OC[C@@H](C)N(C(=O)c2ccc(F)cc2)C[C@H]1C	-6.504
CN(C)C(=O)c1cccc(-c2ccc3c(c2)[C@@H]2[C@@H](CCN2Cc2ccccc2F)[C@@H](CO)N3)c1	-59.43
COc1ccc2c3c([nH]c2c1)[C@H](CO)N(C(=O)c1ccc(F)cc1)CC31CCN(C(=O)Nc2ccc(F)cc2)CC1	6.863
CO[C@@H]1CN(C)C(=O)c2ccc(NC(=O)NC(C)C)cc2OC[C@@H](C)N(Cc2ccc(-c3ccccn3)cc2)C[C@@H]1C	-7.037
CCCN(C)C[C@@H]1Oc2cc(/C=C/c3ccccc3)ccc2S(=O)(=O)N([C@@H](C)CO)C[C@H]1C	-34.29
CCC(=O)N1CC2(CN(Cc3ccc(Cl)cc3)C2)c2c(n(C)c3cc(OC)ccc23)[C@H]1CO	-21.02
Cc1ccccc1-c1ccc([C@@H]2[C@H](CO)N3CCCCN(S(=O)(=O)Cc4ccccc4)C[C@@H]23)cc1	-40.08
COc1cccc(S(=O)(=O)N(C)C[C@@H]2OCc3ccccc3-c3c(n(C)c4ccccc34)C(=O)N([C@H](C)CO)C[C@@H]2C)c1	-65.74
COc1ccc2c3c([nH]c2c1)[C@H](CO)N(CC1CC1)CC31CCN(C(=O)c2ccc(F)cc2)CC1	-25.96
O=C(Nc1cccc(Cl)c1)N[C@H]1CC[C@H](CCn2cc(Cc3ccccc3)nn2)O[C@@H]1CO	-7.936
O=C(c1ccc(F)cc1)N1CCCCN2[C@H](C1)[C@H](c1ccc(-c3ccccc3)cc1)[C@@H]2CO	1.818
CCCC(=O)N1CC2(C1)CN(C(=O)Nc1cccc(F)c1)[C@@H](CO)c1c2c2ccc(OC)cc2n1C	-7.985
COc1ccc(C#Cc2ccc([C@@H]3[C@H](CO)N4C(=O)CN(C(=O)c5ccc(F)cc5)C[C@@H]34)cc2)cc1	-35.26
C[C@H](CO)N1C[C@H](C)[C@H](CN(C)C(=O)Nc2ccc3c(c2)OCO3)OCc2ccccc2-c2c(n(C)c3ccccc23)C1=O	-19.53
COc1ccc2c3c(n(C)c2c1)[C@@H](CO)N(Cc1ccc(F)cc1)CC31CCN(C)CC1	-14.3
CC(C)(C)[S@](=O)N1Cc2cc(C(=O)NCc3ccccc3F)nc(-c3cccc(-c4ccncc4)c3)c2[C@@H]1CCO	-24.08
CCc1sc(N2[C@H](C#N)[C@H](c3ccccc3-c3ccc(F)cc3)[C@H]2CO)nc1C	-15.09
Cc1cccc(S(=O)(=O)N2CCCCN3[C@H](CO)[C@H](c4ccc(C#C[C@@H](C)O)cc4)[C@@H]3C2)c1	-8.588
OC[C@H]1[C@@H](c2ccc(C#CC3CCCC3)cc2)[C@@H]2CN(CCC(F)(F)F)CCCCN12	-42.04
COc1cccc(S(=O)(=O)Nc2ccc3c(c2)[C@@H]2C[C@@H](CC(=O)NCc4ccc(Cl)cc4)O[C@H](CO)[C@@H]2O3)c1	-22.33
Fc1cccc(CN2C[C@@H]3N[C@H](C2)C3c2ccc(-c3cncnc3)cc2)c1 (stereo partly drawn)	5.931
CO[C@@H]1CN(C)C(=O)c2cc(NS(=O)(=O)c3ccccc3C)ccc2OC[C@@H](C)N(S(=O)(=O)c2ccccc2)C[C@H]1C	-1.749
COc1cccc(S(=O)(=O)N2CC3(CCN(C)CC3)c3c(n(C)c4cc(OC)ccc34)[C@@H]2CO)c1	-35.07
CCCNC(=O)N1[C@H](C#N)[C@@H](c2ccccc2C2=CCCCC2)[C@@H]1CO	-16.52
C[C@@H]1CCCCO[C@@H](CN(C)CC2CCCCC2)[C@H](C)CN([C@H](C)CO)C(=O)c2cc(NC(=O)C3CCCCC3)ccc2O1	-15.08
COc1ccc2c3c([nH]c2c1)[C@H](CO)N(Cc1ccccc1)CC31CCN(C(=O)Cc2ccccc2)CC1	-42.46
O=S(=O)(c1cccs1)N1CCCCN2[C@H](C1)[C@H](c1ccc(/C=C/c3ccccc3)cc1)[C@@H]2CO	-19.99
C[C@H](CO)N1C[C@H](C)[C@@H](CN(C)Cc2ccc(Oc3ccccc3)cc2)OCc2ccccc2-c2c(n(C)c3ccccc23)C1=O	-5.817
O=C(C[C@@H]1CC[C@H]2[C@@H](COC[C@H](O)CN2Cc2cc(F)ccc2F)O1)NCc1ccc(Oc2ccccc2)cc1	-30.52
Cn1cnc(S(=O)(=O)N2CCCCN3[C@H](CO)[C@H](c4ccc(C#CC5CCCC5)cc4)[C@H]3C2)c1	-5.284
CCC(=O)N1CC2(CN(Cc3ccc(Cl)cc3)C2)c2c([nH]c3cc(OC)ccc23)[C@@H]1CO	-3.271